Assay results from US20190282704A1.
Results are given in words; binding and its absence hold for the method and conditions named. Some results given as binding are weak or reduced against the parent protein; the word gives no strength.

Legend:
Assay in all cases: Biacore, peptide immobilised, ZTS-927 as analyte; KD in FIG. 13B, not given
[1] = target: T1, Peptide ZTS-561
T1 sequence (peptide, terminal cysteines constrained with the mT2a linker (CLIPS)): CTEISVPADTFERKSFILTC

[2] = target: T2, Peptide ZTS-562
T2 sequence (peptide, constrained through the terminal cysteines; linker only shown in FIG. 13A): CEISVPADTFERKSFC

[3] = target: T3, Peptide ZTS-564
T3 sequence (peptide, terminal cysteines constrained with the mT2b linker (CLIPS)): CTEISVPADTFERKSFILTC

[4] = target: T4, Peptide ZTS-563
T4 sequence (peptide, terminal cysteines constrained with the mT2a linker (CLIPS)): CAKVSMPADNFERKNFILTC

Measured: binding

B1: ZTS-927 (antibody)
heavy: QVLLVQSGAEVRTPGASVKIFCKASGYSFTSYTIHWLRQAPAQGLEWMGNINPTSGYTENNQRFKDRLTLTADTSTNTAYMELSSLRSADTAMYYCARWGFKYDGEWSFDVWGAGTTVTVSSASTTAPSVFPLAPSCGTTSGATVALACLVLGYFPEPVTVSWNSGALTSGVHTFPAVLQASGLYSLSSMVTVPSSRWLSDTFTCNVAHPPSNTKVDKTVRKTDHPPGPKPCDCPKCPPPEMLGGPSIFIFPPKPKDTLSISRTPEVTCLVVDLGPDDSDVQITWFVDNTQVYTAKTSPREEQFNSTYRVVSVLPILHQDWLKGKEFKCKVNSKSLPSPIERTISKAKGQPHEPQVYVLPPAQEELSRNKVSVTCLIKSFHPPDIAVEWEITGQPEPENNYRTTPPQLDSDGTYFVYSKLSVDRSHWQRGNTYTCSVSHEALHSHHTQKSLTQSPGK
light: EIQMTQSPSSLSASPGDRVTITCRASQGISIWLSWYQQKPGNIPKVLINKASNLHIGVPSRFSGSGSGTDFTLTISSLEPEDAATYYCLQSQTYPLTFGGGTKLEIKRSDAQPSVFLFQPSLDELHTGSASIVCILNDFYPKEVNVKWKVDGVVQNKGIQESTTEQNSKDSTYSLSSTLTMSSTEYQSHEKFSCEVTHKSLASTLVKSFQRSECQRE
binds: all assays above
